Reference: PubChem BioAssay AID256 (DTP/NCI, 2004)
The list does not hold the whole screen: it is rich in T/C values a quarter to a half above the control, in often repeated tests (any T/C) and in doses without a T/C. Further doses and runs are listed elsewhere. T/C gives the treated animals as a percentage of the vehicle group. Some entries give survivors of the animals treated and no T/C: the source holds a T/C of zero for them, seemingly a mark for toxic or unscored doses. Some survivor counts are full or nearly so, which does not show that the dose was tolerated: the source hardly ever lists a survival T/C far under the control, and the zero likely stands for such cases as well. Survivors were counted at the toxicity check, usually on the fifth day, unless a day is given; later deaths do not show. Schedule codes are those of the source, read here as Q, the interval in days (D) or hours (H), X, the number of doses. For survival time, this PubChem deposit counts one and a half times the control or more as active, and values a quarter to a half above the control carry no call in these data; other NCI protocols may use other cut-offs. Some doses were run more than once; the results are listed from low to high. Some T/C values carry the count of animals alive at the toxicity check (mostly the fifth day); where none is given, no animal had died by that day.

Tested on: CD2F1 mice, L1210 leukemia ip, survival T/C
Assay: NCI In Vivo Anticancer Drug Screen. Data for tumor model L1210 Leukemia (intraperitoneal) in CD2F1 (CDF1) mice
Conditions: higher T/C = longer survival
In short: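 In this screen, transplantable tumors were grown in mice given either the compound or its vehicle. Results were expressed as the treated measurement relative to the control measurement.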

[1] = T/C endpoint: mean survival time, dose: 100.0 mg/kg/injection, schedule: Q04DX003 (ip), vehicle: saline with Tween-80
[2] = T/C endpoint: mean survival time, dose: 200.0 mg/kg/injection, schedule: Q04DX003 (ip), vehicle: saline with Tween-80
[3] = T/C endpoint: mean survival time, dose: 400.0 mg/kg/injection, schedule: Q04DX003 (ip), vehicle: saline with Tween-80

For N=[N+]=CC(=O)CCC(NC(=O)C(CCC(=O)C=[N+]=N)NC(=O)CCC(N)C(=O)O)C(=O)O (stereo unspecified), the T/C (T/C endpoint: mean survival time, dose: 0.05 mg/kg/injection, schedule: Q01DX009 (ip), vehicle: other) was 127 % of control, the T/C (T/C endpoint: mean survival time, dose: 0.1 mg/kg/injection, schedule: Q01DX009 (ip), vehicle: other) was 137 and 140 % of control and the T/C (T/C endpoint: mean survival time, dose: 0.1 mg/kg/injection, schedule: Q01DX009 (ip), vehicle: water) was 134 % of control. The T/C (T/C endpoint: mean survival time, dose: 0.1 mg/kg/injection, schedule: Q01DX009 (sc), vehicle: water) was 145 % of control, the T/C (T/C endpoint: mean survival time, dose: 0.1 mg/kg/injection, schedule: Q01DX017 (ip), vehicle: saline, evaluated on day 5) was 145 % of control and the T/C (T/C endpoint: mean survival time, dose: 0.1 mg/kg/injection, schedule: Q01DX017 (ip), vehicle: saline, evaluated on day 22) was 145 % of control. The T/C (T/C endpoint: mean survival time, dose: 0.2 mg/kg/injection, schedule: Q01DX009 (ip), vehicle: water) was 134 % of control, the survivor count (T/C endpoint: mean survival time, dose: 0.8 mg/kg/injection, schedule: Q01DX009 (oral), vehicle: water) was 10 of 10 and the survivor count (T/C endpoint: mean survival time, dose: 0.8 mg/kg/injection, schedule: Q01DX009 (sc), vehicle: water) was 9 of 10. The T/C (T/C endpoint: mean survival time, dose: 0.8 mg/kg/injection, schedule: Q03HX024 (ip), vehicle: water) was 130 % of control, the survivor count (T/C endpoint: mean survival time, dose: 1.0 mg/kg/injection, schedule: Q01DX009 (ip), vehicle: other) was 6 of 6 and the T/C (T/C endpoint: mean survival time, dose: 1.6 mg/kg/injection, schedule: Q03HX016 (ip), vehicle: water) was 138 % of control. For the same molecule, the T/C (T/C endpoint: mean survival time, dose: 3.1 mg/kg/injection, schedule: Q03HX016 (ip), vehicle: water) was 127 % of control, the survivor count (T/C endpoint: mean survival time, dose: 6.25 mg/kg/injection, schedule: Q03HX008 (ip), vehicle: water) was 4 of 10 and the survivor count (T/C endpoint: mean survival time, dose: 6.25 mg/kg/injection, schedule: Q03HX016 (ip), vehicle: water) was 4 of 10. The survivor count (T/C endpoint: mean survival time, dose: 6.25 mg/kg/injection, schedule: Q03HX024 (ip), vehicle: water) was 6 of 10, the survivor count (T/C endpoint: mean survival time, dose: 12.5 mg/kg/injection, schedule: Q03HX008 (ip), vehicle: water) was 3 of 10 and the survivor count (T/C endpoint: mean survival time, dose: 12.5 mg/kg/injection, schedule: Q03HX016 (ip), vehicle: water) was 4 of 10. For the same molecule, the survivor count (T/C endpoint: mean survival time, dose: 12.5 mg/kg/injection, schedule: Q03HX024 (ip), vehicle: water) was 3 of 10, the T/C (T/C endpoint: mean survival time, dose: 12.5 mg/kg/injection, schedule: Q08DX002 (ip), vehicle: water) was 140 % of control and the T/C (T/C endpoint: mean survival time, dose: 25.0 mg/kg/injection, schedule: Q01DX001 (ip), vehicle: water) was 142 % of control. The T/C (T/C endpoint: mean survival time, dose: 25.0 mg/kg/injection, schedule: Q01DX001 (oral), vehicle: water) was 128 % of control, the T/C (T/C endpoint: mean survival time, dose: 25.0 mg/kg/injection, schedule: Q01DX001 (sc), vehicle: water) was 141 % of control and the survivor count (T/C endpoint: mean survival time, dose: 25.0 mg/kg/injection, schedule: Q03HX008 (ip), vehicle: water) was 1 of 10. The survivor count (T/C endpoint: mean survival time, dose: 25.0 mg/kg/injection, schedule: Q03HX016 (ip), vehicle: water) was 2 of 10, the T/C (T/C endpoint: mean survival time, dose: 50.0 mg/kg/injection, schedule: Q01DX001 (ip), vehicle: water) was 136 % of control and the T/C (T/C endpoint: mean survival time, dose: 50.0 mg/kg/injection, schedule: Q01DX001 (oral), vehicle: water) was 132 % of control. For the same molecule, the T/C (T/C endpoint: mean survival time, dose: 50.0 mg/kg/injection, schedule: Q01DX001 (sc), vehicle: water) was 144 % of control [9 of 10 alive], the survivor count (T/C endpoint: mean survival time, dose: 50.0 mg/kg/injection, schedule: Q03HX008 (ip), vehicle: water) was 1 of 10 and the T/C (T/C endpoint: mean survival time, dose: 50.0 mg/kg/injection, schedule: Q04DX003 (ip), vehicle: water) was 149 % of control. For the same molecule, the T/C (T/C endpoint: mean survival time, dose: 100.0 mg/kg/injection, schedule: Q01DX001 (ip), vehicle: water) was 137 % of control [9 of 10 alive], the survivor count (T/C endpoint: mean survival time, dose: 200.0 mg/kg/injection, schedule: Q01DX001 (sc), vehicle: water) was 9 of 10 and the T/C (T/C endpoint: mean survival time, dose: 200.0 mg/kg/injection, schedule: Q08DX002 (ip), vehicle: water) was 140 % of control [8 of 10 alive]. For the same molecule, the survivor count (T/C endpoint: mean survival time, dose: 400.0 mg/kg/injection, schedule: Q01DX001 (oral), vehicle: water) was 5 of 10 and the survivor count (T/C endpoint: mean survival time, dose: 400.0 mg/kg/injection, schedule: Q01DX001 (sc), vehicle: water) was 4 of 10.

For C[N+](C)(CC(=O)Nc1cccc(C(F)(F)F)c1)CC(=O)Nc1cccc(C(F)(F)F)c1, the survivor count (T/C endpoint: mean survival time, dose: 12.5 mg/kg/injection, schedule: Q04DX003 (ip), vehicle: saline with Tween-80) was 6 of 6, the survivor count [1] was 4 of 6 and the survivor count [2] was 2 of 6. The survivor count [3] was 0 of 6.

COc1ccc(NC(=O)Oc2ccc(Cl)cc2Cl)cc1 was tested, and the survivor count (T/C endpoint: mean survival time, dose: 200.0 mg/kg/injection, schedule: Q04DX002 (ip), vehicle: saline with Tween-80) was 3 of 3.

In the case of O=C(O)c1cccnc1Cl, the survivor count (T/C endpoint: mean survival time, dose: 300.0 mg/kg/injection, schedule: Q01DX009 (ip), vehicle: Klucel (hydroxypropylcellulose) (HPC)) is reported as 4 of 6.

In the case of FC(F)(F)c1ccc2c(c1)N(CCCN(CCCl)CCCl)c1ccccc1S2, the survivor count (T/C endpoint: mean survival time, dose: 40.0 mg/kg/injection, schedule: Q01DX001 (ip), vehicle: saline) is reported as 3 of 6.

For COc1cc[n+](CCc2c[nH]c3ccccc23)cc1, the survivor count [1] was 5 of 6, the survivor count [2] was 2 of 6 and the survivor count [3] was 0 of 6.

In the case of C=C(Br)CNC(=O)C(=O)OCC, the T/C [2] is reported as 134 % of control and the survivor count [3] is reported as 3 of 6.

C/C=C\C1OC1(C)c1cc(=O)c2c(C)cc3c(c2o1)C(=O)c1c(O)c(C2CC(C)(N(C)C)C(OC(C)=O)C(C)O2)cc(C2CC(N(C)C)C(O)C(C)O2)c1C3=O (stereo unspecified) was tested, and the T/C (T/C endpoint: mean survival time, dose: 0.7 mg/kg/injection, schedule: Q04DX003 (ip), vehicle: saline with Tween-80) was 127 % of control, the T/C (T/C endpoint: mean survival time, dose: 1.4 mg/kg/injection, schedule: Q04DX003 (ip), vehicle: saline with Tween-80) was 134 % of control and the T/C (T/C endpoint: mean survival time, dose: 2.8 mg/kg/injection, schedule: Q04DX003 (ip), vehicle: saline with Tween-80) was 127 % of control. For the same molecule, the T/C (T/C endpoint: median survival time, dose: 0.5 mg/kg/injection, schedule: Q01DX005 (ip), vehicle: saline + alcohol) was 127 % of control, the T/C (T/C endpoint: median survival time, dose: 0.6 mg/kg/injection, schedule: Q01DX005 (ip), vehicle: saline + alcohol) was 129 % of control and the T/C (T/C endpoint: median survival time, dose: 1.0 mg/kg/injection, schedule: Q01DX005 (ip), vehicle: saline + alcohol) was 131 % of control. For the same molecule, the T/C (T/C endpoint: median survival time, dose: 1.67 mg/kg/injection, schedule: Q01DX005 (ip), vehicle: saline + alcohol) was 139 % of control, the T/C (T/C endpoint: median survival time, dose: 2.0 mg/kg/injection, schedule: Q01DX005 (ip), vehicle: saline + alcohol) was 127 % of control and the T/C (T/C endpoint: median survival time, dose: 4.0 mg/kg/injection, schedule: Q01DX005 (ip), vehicle: saline + alcohol) was 127 % of control [5 of 6 alive]. For the same molecule, the T/C (T/C endpoint: median survival time, dose: 4.63 mg/kg/injection, schedule: Q01DX005 (ip), vehicle: saline + alcohol) was 143 % of control [5 of 6 alive].

For O=Cc1cc(Cl)c(O)c(Cl)c1, the survivor count (T/C endpoint: mean survival time, dose: 400.0 mg/kg/injection, schedule: Q04DX003 (ip), vehicle: Klucel (hydroxypropylcellulose) (HPC)) was 0 of 3.

In the case of CC1=C(/C=C/C(C)=N/NC(N)=S)C(C)(C)CCC1, the survivor count (T/C endpoint: mean survival time, dose: 50.0 mg/kg/injection, schedule: Q01DX009 (ip), vehicle: saline with Tween-80) is reported as 1 of 6 and the survivor count [1] is reported as 6 of 6.

CN(C)C(=O)N(CCCl)N=O was tested, and the T/C (T/C endpoint: mean survival time, dose: 10.0 mg/kg/injection, schedule: Q01DX001 (ip), vehicle: other) was 139 % of control, the survivor count (T/C endpoint: mean survival time, dose: 37.5 mg/kg/injection, schedule: Q01DX001 (ip), vehicle: water) was 3 of 3 and the survivor count (T/C endpoint: mean survival time, dose: 64.0 mg/kg/injection, schedule: Q01DX001 (ip), vehicle: other) was 6 of 6. For the same molecule, the survivor count (T/C endpoint: mean survival time, dose: 75.0 mg/kg/injection, schedule: Q01DX001 (ip), vehicle: water) was 2 of 3, the survivor count (T/C endpoint: mean survival time, dose: 150.0 mg/kg/injection, schedule: Q01DX001 (ip), vehicle: water) was 2 of 3 and the survivor count (T/C endpoint: mean survival time, dose: 300.0 mg/kg/injection, schedule: Q01DX001 (ip), vehicle: water) was 2 of 3.

CCCCCCOc1ccc(N=Cc2ccc(N(C)C)cc2)cc1 was tested, and the survivor count (T/C endpoint: mean survival time, dose: 300.0 mg/kg/injection, schedule: Q01DX001 (ip), vehicle: other) was 0 of 6.

With CC(C)(C)C(NO)C(O)N1CCCCC1 (stereo unspecified) the survivor count (T/C endpoint: mean survival time, dose: 400.0 mg/kg/injection, schedule: Q01DX001 (ip), vehicle: saline) was 1 of 6.

In the case of Cc1cccc(CN=C(N)CCl)n1, the survivor count (T/C endpoint: mean survival time, dose: 400.0 mg/kg/injection, schedule: Q04DX002 (ip), vehicle: saline) is reported as 0 of 3.

N.N.N.N.O=C(O)C1OCCOCCOC(C(=O)O)C(C(=O)O)OCCOCCOC1C(=O)O.[Pt+2].[Pt+2] (stereo unspecified) was tested, and the T/C (T/C endpoint: median survival time, dose: 12.5 mg/kg/injection, schedule: Q04DX003 (ip), vehicle: saline with Tween-80) was 131 % of control and the survivor count (T/C endpoint: median survival time, dose: 40.0 mg/kg/injection, schedule: Q04DX003 (ip), vehicle: saline) was 6 of 6.
